Experimental data taken from the supplement of paper PMC7024190.
Where a name gives a salt, the structure may show the parent alone. The list shows a part of the results. Single values are uncertain here, since repeats match poorly.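 Human embryonic kidney cells were transiently transfected with a plasmid bearing a Renilla luciferase gene under the HSV-TK promoter. This first-round screen tests roughly ten thousand compounds for ones that increase reporter output.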

The compounds below were run on HEK 293FT (assay: log relative Renilla luciferase luminescence (reporter expression vs reference, reference not stated) (log (base not stated)); higher = higher recombinant reporter expression). Conditions: 10 µM; time after transfection 48 h.

| Compound | log |
| --- | --- |
| CCOC(=O)c1ncn2c1[C@@H]1CCCN1C(=O)c1cc(OC)ccc1-2 | -0.0747 |
| CN1Cc2ccccc2[C@@H]2c3cccc4[nH]cc(c34)C[C@H]21 | -0.085 |
| COc1ccc(C(=O)c2c(C)n(CCN3CCOCC3)c3cc(I)ccc23)cc1 | 0.0801 |
| Cn1cc(C(=O)C(=O)N[C@H]2CN3CCC2CC3)c2ccccc21 | -0.00108 |
| CC(=O)NCCc1c[nH]c2ccccc12 [N-Acetyltryptamine] | 0.072 |
| S=C(NC1CCCCC1)N1CCC(c2cnc[nH]2)CC1 [Thioperamide] | -0.0209 |
| CC[N+](CC)(CCCNC1=CC(=O)C(NCCC[N+](CC)(CC)Cc2ccccc2)=CC1=O)Cc1ccccc1 [Benzoquinonium dibromide] | 0.179 |
| OC1CCCCC1N1CCC(c2ccccc2)CC1 (racemic) [(±)-Vesamicol hydrochloride] | -0.0186 |
| O=C(O)c1ccc2[nH]cc(CCCCN3CC=C(c4ccccc4)CC3)c2c1 [Carmoxirole hydrochloride] | -0.0811 |
| CN1[C@@H]2C[C@@H](OC(=O)[C@H](CO)c3ccccc3)C[C@H]1[C@@H]1O[C@@H]12 [Scopolamine hydrobromide] | -0.00758 |
| O=c1[nH]c2ccccc2n1C1CCN(CCCC(c2ccc(F)cc2)c2ccc(F)cc2)CC1 [Pimozide] | -0.275 |
| CCOC(=O)c1cncn1[C@H](C)c1ccccc1 [Etomidate] | 0.0808 |
| Oc1cc2c(cc1O)[C@H]1c3ccccc3CN[C@@H]1CC2 (racemic) [Dihydrexidine hydrochloride] | -0.0798 |
| CNCCc1cnc[nH]1 [N α-Methylhistamine dihydrochloride] | 0.027 |
| CCC(Oc1ccc(Cl)cc1)C(=O)OC1C[C@H]2CC[C@@H](C1)N2C (some centres undefined) [SM-21 maleate] | -0.0231 |
| O=C(O)C1=CCCN(CCOC(c2ccc(C(F)(F)F)cc2)c2ccc(C(F)(F)F)cc2)C1 [CI 966 hydrochloride] | -0.0231 |
| CC(C)NCC(O)c1ccc(N)c(C#N)c1 (centres undefined) [Cimaterol] | -0.0369 |
| CCCOc1ccc2[nH]cc(C3=CCNCC3)c2n1 | -0.0996 |
| C[C@H](N)Cc1cnc[nH]1 [(S)-(+)-a-Methylhistamine dihydrobromide] | 0.00743 |
| CCCN(CCC)C1Cc2cc(OC)c(OC)cc2C1 | -0.00977 |

| Compound | log |
| --- | --- |
| c1ccc2c(c1)[I+]c1ccccc1-2 [Diphenyleneiodonium chloride] | -1.49 |
| C[C@@]12N[C@@H](Cc3ccccc31)c1ccccc12 [(-)-MK 801 maleate] | 0.136 |
| O=C1Nc2ccccc2C2(CCN(CCc3ccc(C(F)(F)F)cc3)CC2)O1 | -0.206 |
| CC(CN)CC(=O)O (centres undefined) [3-Methyl-GABA] | 0.0993 |
| CCCCCCC[n+]1ccc(-c2cc[n+](CCCCCCC)cc2)cc1 [DHBP dibromide] | -0.168 |
| COc1ccc(C(=O)N2CCCC2=O)cc1 [Aniracetam] | 0.0467 |
| Oc1ccc2c3c1O[C@H]1c4oc5ccccc5c4C[C@@]4(O)[C@@H](C2)N(CC2CC2)CC[C@]314 [Naltriben mesylate] | -0.089 |
| c1ccc2sc(C3(N4CCCCC4)CCCCC3)cc2c1 [BTCP maleate] | 0.00743 |
| COc1cc(N)c(Cl)cc1C(=O)NC1CN2CCC1CC2 (centres undefined) [Zacopride hydrochloride] | 0.209 |
| COC1(C[S@+]([O-])c2ccccc2)CCN(CCc2c[nH]c3ccc(F)cc23)CC1 | -0.112 |
| S=C=Nc1cccc(C2(N3CCCCC3)CCCCC2)c1 [Metaphit] | 0.146 |
| C/C(O)=C(\C#N)C(=O)Nc1cc(Br)ccc1Br | -0.00324 |
| CC(=O)[C@H]1CC[C@H]2[C@@H]3CC[C@H]4C[C@](C)(O)CC[C@]4(C)[C@H]3CC[C@]12C [Ganaxolone] | -0.0437 |
| Cc1cccc(C(C)c2c[nH]cn2)c1C (centres undefined) [Medetomidine hydrochloride] | -0.0983 |
| C[C@H](Cc1ccc(OCC(=O)O)cc1)NC[C@H](O)c1cccc(Cl)c1 | -0.0231 |
| Fc1ccc(C(OCCN2CCN(CCCc3ccccc3)CC2)c2ccc(F)cc2)cc1 | 0.0801 |
| COC(=O)/C=C/C(=O)N[C@@H]1CC[C@@]2(O)[C@H]3Cc4ccc(O)c5c4[C@@]2(CCN3CC2CC2)[C@H]1O5 [β-Funaltrexamine hydrochloride] | -0.111 |
| C=CCN1CC[C@]23c4c5ccc(O)c4O[C@H]2/C(=N/NC(=O)c2ccccc2)CC[C@@]3(O)[C@H]1C5 [Naloxone benzoylhydrazone] | 0.0477 |
| CCOc1cncc(/C=C/CCNC)c1 [TC 2559 difumarate] | -0.0108 |

3 compounds picked at random from those above:

| Compound | log |
| --- | --- |
| Cc1cccc(C(C)c2c[nH]cn2)c1C (centres undefined) [Medetomidine hydrochloride] | -0.0983 |
| CCCCCCC[n+]1ccc(-c2cc[n+](CCCCCCC)cc2)cc1 [DHBP dibromide] | -0.168 |
| CCOc1cncc(/C=C/CCNC)c1 [TC 2559 difumarate] | -0.0108 |
